Experimental data reported in article PMC10163288.
The other results are listed elsewhere or left out.

B1: il2ra_site1_3nfp_sap_25_mot_HHH_b1_02174_af2_000000144_0001_1_18_H_._HHH_b1_08546_0001_0000100002_0000001_1_0001_af2pred_0001_af2pred_swapped (protein)
chain: SSSSDVEERLKQLLEELEELARKLDLRRFLEVAKEISRLVQEHDDEEAYRLLRRILREAAGSSSS
B2: il2ra_site2_3nfp_normal_mot_HHH_b2_07498_000000057_0001_1_14_H_._HHH_b2_05183_0001_0000200013_0000001_0 (protein)
chain: SSSSDREEVEELLEEAEELLKEGNPEEAFQVVLRASKLAAKLDDPELARAVLELYELLKRSSSSS
B3: il2ra_site2_2erj_normal_mot_3b06bd03f1c6bceadc68eab912867b79_0001_000000296_0001_36_50_H_._c839b00de2d74b58ead539899b931618_0001_0001_0000400015_0000001_0_af2pr … (protein)
chain: SEVEEFLRELLEQDPRDRLVFTILSIFKWALKSGLPPEEVTKKVIEAAEAAGNPELAEELKKILK
B4: il2ra_site2_3nfp_normal_mot_HHH_b1_07556_000000077_0001_42_55_H_._HHH_b1_04552_0001_0000600035_0000001_0 (protein)
chain: SSSSSDKEELEELLELLEKAVEEGDREEFRELLRRATNLAYKLRDHEAFALLAELINWLISSSSS
B5: il2ra_site2_3nfp_sap_18_mot_HHH_b1_06589_000000230_0001_37_50_H_._6169ea741eebcbe25a7a19b2986e1e54_0001_1_0001_0000100004_0000001_0_0001_af2pred_0001_af2pred_sw … (protein)
chain: SSSSSEEEKARELLEKIEEALREGDEELFRELAEELSRLIREIGDPELFIRLAELLLEFDSSSSS
B6: il2ra_site1_3nfp_sap_14_mot_HHH_b2_01680_af2_000000278_0001_1_15_H_._HHH_b2_00992_af2_0001_0000100001_0000001_0_0001_af2pred_0001_af2pred_1 (protein)
chain: SSSSTDELRRVEELKKLAKEALEEGDDEEFREILKELRRIAEEANDPAIEWLIRLLEELFSSSSS
B7: il2ra_site1_3nfp_sap_13_mot_HHH_b2_00809_af2_000000121_0001_23_40_H_._HHH_b2_04323_af2_0001_0000400012_0000001_0_0001_af2pred_0001_af2pred_1_swapped (protein)
chain: SSSSSDSLELLEKAMKAAFNGNFEEAKRLLEELEEILEEEGDERKLKKVRKQLRIIELLQSSSSS
B8: il2ra_site1_3nfp_normal_mot_HHH_b2_03478_af2_000000120_0001_43_57_H_._HEEHE_2123_0001_0000300060_0000001_0 (protein)
chain: SEEKIVEWLARLLAKTFNVPKVEIRFENNRVTVTVEGDDELAEAALRAATKAAEQAGYSVENEIE
B9: il2ra_site1_1z92_sap_19_mot_HHH_b2_05238_af2_000000252_0001_38_55_H_._HHH_b2_07485_af2_0001_0000100002_0000001_1_0001_af2pred_0001_af2pred (protein)
chain: KIEIHIVNASPQVIRLIEDLKEIPDVEVTTENYNEYTVHVTDERIAEELEHFARRAGVDVEVRMS
B10: il2ra_site1_3nfp_normal_mot_HHH_b1_04931_000000291_0001_38_56_H_._HHH_b1_04351_0001_0000100017_0000001_0 (protein)
chain: SSSSDEEVREEVERLLEELEKARDPHEATEIVREIIRLIHELGDRELSELLQKLLQKLAKSSSSS
B11: il2ra_site1_1z92_sap_18_mot_23887b7af660956ed16a9c889f5d2f9d_0001_1_af2_000000287_0001_38_52_H_._32063319e58c7a3ce97db74413982e08_0001_1_0002_0000100018_0000001 … (protein)
chain: SSSSSEEEAAESNLKIARLALKRGNREKARRALRIVKSFAKETNDPELEEEAREIEEEVNSSSSS
B12: il2ra_site1_3nfp_sap_23_mot_ems_3hC_921_af2_000000143_0001_22_40_H_._HHH_b1_07723_0001_0000200012_0000001_0_0001_af2pred_0001_af2pred (protein)
chain: SEDEEEAEKLLKRRVPPEVVKLLKLLAEAAKEGNPQAKRRLEKSEKMARRLGDEDVVEAIELLRK
B13: il2ra_site1_2b5i_normal_mot_HHH_b2_07442_af2_000000069_0001_1_16_H_._HHH_b1_01573_af2_0001_0000100006_0000001_0_af2pred_dldesign_0_af2pred (protein)
chain: SSSSDEKLDEIDDLFDKALKLYREGKKEEATKLLEEALKLAKELNDHRAAELQRLLELLKSSSSS
B14: il2ra_site1_2b5i_normal_mot_HHH_b1_05608_000000027_0001_1_14_H_._HHH_b2_03941_af2_0001_0000200008_0000001_0_af2pred_dldesign_0_af2pred (protein)
chain: SSSSSSSSEEVQKLIEEAKKEKDRRKALETLEKAYKLASALGDDELIDEIEKLARELNSSSSSSS
B15: il2ra_site2_3nfp_normal_mot_HHH_b2_07840_000000026_0001_18_34_H_._3e5e4a15067cbc373d7c33478bca156f_0001_af2_0001_0000300024_0000001_0 (protein)
chain: DEERLIQELVQAGDHALFAIALDLAEARELGDEEVVEEIKELIEELEKGELPPEEVARLVDKLLK
B16: il2ra_site2_2erj_normal_mot_HHH_b1_03107_000000098_0001_39_52_H_._HHH_b2_07490_0001_0000700026_0000001_0 (protein)
chain: SSSSTEAYEEASRATLRALELFKRGNPEEAREVLEEALRLAEELNDEAAKRYLEFARRDLDSSSS
B17: il2ra_site1_3nfp_sap_10_mot_HHH_b1_01159_af2_000000107_0001_1_20_H_._HHH_b2_02384_0001_0000300011_0000001_1_0001 (protein)
chain: TSEKLAEIIARSIKKKAGVESVTVTMRNGKITVTVKGTDEEAEAALESAEWFAERSGIPVEVETE
B18: il2ra_site1_3nfp_normal_mot_HHH_b2_08102_af2_000000255_0001_38_50_H_._HHH_b1_06235_af2_0001_0000300024_0000001_0 (protein)
chain: SSSSSREVHRATKLAKEVWRLLKEGDEEEAEELLEELRKIAEELNDKIAERFIQHLLEKLRSSSS
B19: il2ra_site1_3nfp_normal_mot_HHH_b1_03753_af2_000000088_0001_41_54_H_._HHH_b2_03582_af2_0001_0000300018_0000001_1_af2pred_0001_af2pred (protein)
chain: SSSSDDQEIAELLREAREAAEEGDREKAKEILEEALRLAEESNNPHAERKLRHSLKVLELLSSSS

These binders were tested against il2ra, P01589 (assay: yeast display titration).

Apparent Kd, inactive:
B1 no binding seen
B2 no binding seen
B3 no binding seen
B4 no binding seen
B5 no binding seen
B6 no binding seen
B7 no binding seen
B8 no binding seen
B9 no binding seen
B10 no binding seen
B11 no binding seen
B12 no binding seen
B13 no binding seen
B14 no binding seen
B15 no binding seen
B16 no binding seen
B17 no binding seen
B18 no binding seen
B19 no binding seen

Random excerpt: 2 records from the list
Apparent Kd, inactive:
B17 no binding seen
B3 no binding seen
